Measured values: PubChem BioAssay AID1487 (National Center for Advancing Translational Sciences (NCATS), 2009)
The campaign covered roughly 200,000 compounds. About 25 (0.01%) were called active. The inconclusive results got no clear call from the source; some entries with a clear call stand among them for comparison. Calls follow the shape of the dose curve; as a rule, active = well fitted inhibition curve with a large enough effect in the signal ratio, with a control signal flat (not every such curve was filed as active); inconclusive = small, poorly fitted or top-dose-only effect, or effect the other way, or a change in a side signal; inactive = flat fitted curve, though single readings scatter; the % refers to the signal ratio. Where the call is inconclusive, the potency comes from a doubtful curve fit.
% is scaled to controls: 0 for no effect and ±100 for the full control effect; potency is read from the fitted curve at half-maximal effect.

Assay: qHTS Assay for Modulators of Lamin A Splicing
Conditions: HeLa LMNA splicing GFP/RFP minigene ratio, 48 h; ratio change, negative = inhibition: at 46.1 µM (top of the series) unless noted
In short: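 S3 HeLa stable clones carrying a lamin A-EGFP splicing minigene plus DsRed2 were seeded at 600 cells/well in Opti-MEM with 2% FBS, pin-dosed and incubated 48 h at 37°C. Acumen cytometry (488 nm) gave the GFP/RFP total-intensity ratio.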
For COc1ccccc1OCC(=O)Nc1ccc2c(c1)C(=O)N(CC1CCCO1)C2=O (configuration not stated), the ratio change, negative = inhibition was “inactive”.
For CCCc1cc(C(=O)Nc2cccc(Cl)c2)no1, the ratio change, negative = inhibition was “inactive”.
For CCn1cc(S(=O)(=O)c2ccc(C)cc2)c(=O)c2cc(F)c(N3CCCCCC3)cc21, the ratio change, negative = inhibition was “inactive”.
With Cc1cc(N/N=C/c2ccc(Cl)cc2)nc(NCc2ccccc2)n1 the ratio change, negative = inhibition was inconclusive: -40.9%.
For CCCOc1ccc2oc(=O)c3c(c2c1)CCCN3C(=O)CN1CCCC(C(=O)OCC)C1 (configuration not stated), the ratio change, negative = inhibition was “inactive”.
With COc1ccc(OC)c(Nc2ncnc3c2cnn3-c2ccc(C)cc2)c1 the ratio change, negative = inhibition was inconclusive: -13.2% [at 46 µM].
With Cc1cc(C)n(-c2ccc(C(=O)Nc3ccc(N4CCOCC4)cc3)cc2)n1 the ratio change, negative = inhibition was “inactive”.
With O=C(NCc1ccc2c(c1)OCO2)C1CCN(S(=O)(=O)N2CCCCC2)CC1 the ratio change, negative = inhibition was inconclusive: -4.26%.
In the case of CC(=O)c1cn(C)c(=O)[nH]c1=O, the ratio change, negative = inhibition is reported as inconclusive: 2.52% [at 46 µM].
With CCOC(=O)CSc1nnnn1-c1cccc2ccccc12 the ratio change, negative = inhibition was “inactive”.
In the case of COc1ccc(N=Cc2ccc(-c3ccccc3)o2)cc1, the ratio change, negative = inhibition is reported as “inactive”.
For CCCNC(=O)COC(=O)/C=C/c1cccc(F)c1, the ratio change, negative = inhibition was “inactive”.
With Nc1nc(SCC(=O)N2CCCC2)[nH]c(=O)c1-c1ccccc1 the ratio change, negative = inhibition was “inactive”.
With COc1cc(C(=O)Nc2ccc(S(=O)(=O)N3CCCCC3C)cc2)cc(OC)c1OC (configuration not stated) the ratio change, negative = inhibition was inconclusive: -16.4%.
In the case of COc1cc(C)c(Br)cc1S(=O)(=O)NCCN1CCOCC1, the ratio change, negative = inhibition is reported as “inactive”.
In the case of CC(C)c1ccc(-c2cc(C(=O)N3N=C(C(F)F)CC3(O)C(F)F)c3ccccc3n2)cc1 (configuration not stated), the ratio change, negative = inhibition is reported as inconclusive: -23.3%.
For c1ccc(CNc2ncncc2-c2ccoc2)cc1, the ratio change, negative = inhibition was inconclusive: -14.5%.
With CCN(CC)CCN(C(=O)c1ccc([N+](=O)[O-])cc1)c1nc2ccc(OC)cc2s1 the ratio change, negative = inhibition was inconclusive: 19% [at 9.22 µM].
With CCCCn1c(CN2CCN(c3ccccc3)CC2)nc2c1c(=O)n(C)c(=O)n2C the Potency was inconclusive: 3.16 µM [fluorescent, full curve].
With S=C(NCc1cccc(Cl)c1)NC1CCCCC1 the ratio change, negative = inhibition was inconclusive: -48.2%.
For CC(=O)NCCNc1ncnc2ccc(-c3c(C)noc3C)cc12, the Potency was inconclusive: 11.2 µM [inhibitor, partial curve, poor fit].
For CCOc1ccc(NC(=S)N(CCc2c(C)[nH]c3ccccc23)Cc2cccnc2)cc1, the ratio change, negative = inhibition was inconclusive: -31.2%.
For CCOC(=O)c1ccc(NC(=O)NCc2c(C)nn(CC)c2C)cc1, the ratio change, negative = inhibition was inconclusive: 20.9% [at 46 µM].
In the case of COCCCNC(=O)CCc1nc(-c2ccccc2)no1, the ratio change, negative = inhibition is reported as “inactive”.
In the case of COC(=O)c1cc(C)nc2c1c(=O)nc(SCc1cccc(C)c1)n2C1CC1, the ratio change, negative = inhibition is reported as inconclusive: -0.301% [at 46 µM].
For CC(C)Cn1c(-c2csc3ccccc23)n[nH]c1=S, the ratio change, negative = inhibition was inconclusive: -31.2%.
In the case of O=C1CC(Nc2ccc3ccccc3c2)C(=O)N1Cc1ccccc1 (configuration not stated), the ratio change, negative = inhibition is reported as inconclusive: -30.5%.
With Cc1cc(C)cc(NC(=O)c2ccc(CNc3c(N4CCOCC4)c(=O)c3=O)cc2)c1 the ratio change, negative = inhibition was “inactive”.
For COc1ccccc1Cc1nc2ccccc2nc1SCC(=O)Nc1cccc(Cl)c1C, the ratio change, negative = inhibition was inconclusive: 13.4% [at 46 µM].
For COc1ccc(CC(=O)Nc2nc(-c3ccncc3)cs2)cc1, the ratio change, negative = inhibition was inconclusive: -41% [at 46 µM].
With CCOc1cc(NC(=S)NCCCN2CCOCC2)c(OCC)cc1NC(=O)c1ccc(OC)cc1 the ratio change, negative = inhibition was “inactive”.
For c1ccc(OCc2nn3c(-c4cccnc4)nnc3s2)cc1, the ratio change, negative = inhibition was “inactive”.
For Cc1ccc(/C=N/N2CCN(c3ccccn3)CC2)cc1, the ratio change, negative = inhibition was inconclusive: 24.5% [at 46 µM].
For O=S(=O)(CCOc1ccccc1)c1nc2ccccc2[nH]1, the ratio change, negative = inhibition was inconclusive: 220%.
For Nc1nnc(SCCN2C(=O)c3ccccc3C2=O)s1, the ratio change, negative = inhibition was “inactive”.
In the case of Cc1ccc(C2NC(=O)c3ccccc3N2)s1 (configuration not stated), the ratio change, negative = inhibition is reported as inconclusive: -31.5%.
With O=c1cnc2cnc(N3CCOCC3)nc2n1CCc1ccccc1 the ratio change, negative = inhibition was “inactive”.
With O=C(NCc1ccc2c(c1)OCO2)c1cccc(Cl)c1 the ratio change, negative = inhibition was “inactive”.
For COc1ccccc1NC(=O)N1CCN(c2cc(-c3ccccc3)nc3ncnn23)CC1, the ratio change, negative = inhibition was inconclusive: 1.36%.
For Cc1ccc(C(=O)Nc2ccnc(-c3cccnc3)n2)cc1, the ratio change, negative = inhibition was inconclusive: 52.5% [at 46 µM].
With COc1ccc(C2=NN(CN3C(=O)C(=O)c4ccccc43)C(c3ccc(OC)cc3)C2)cc1 (configuration not stated) the ratio change, negative = inhibition was inconclusive: -34.3%.
For COc1ccc(/C=C/C(=O)c2ccc3c4c(cccc24)CC3)cc1, the ratio change, negative = inhibition was inconclusive: 74.2%.
For CC/C(=N/Nc1ccccc1C)c1cnnc(SC)n1, the ratio change, negative = inhibition was inconclusive: 3.81%.
With Cc1onc(-c2c(F)cccc2Cl)c1C(=O)N1CCN(c2ncccn2)CC1 the ratio change, negative = inhibition was inconclusive: 4.02% [at 46 µM].
With CC(C)(C)NC(=O)CSc1nc(N)c(NC(=O)c2ccccc2F)c(=O)[nH]1 the ratio change, negative = inhibition was inconclusive: 13.3% [at 46 µM].
With C=CCc1ccc(OCCOc2cccc3ccc(C)nc23)c(OC)c1 the ratio change, negative = inhibition was inconclusive: -6.48% [at 0.0737 µM].
In the case of CCC(C)OC(=O)C1=C(C)NC(=O)CC1c1ccccc1OC (configuration not stated), the ratio change, negative = inhibition is reported as inconclusive: 36.4%.
For N#CC1=C(SCC(=O)c2ccccc2)NC2=C(C(=O)CCC2)C1c1ccco1 (configuration not stated), the ratio change, negative = inhibition was “inactive”.
In the case of Cc1cccc(N(CC(=O)NCc2ccc3c(c2)OCO3)C(=O)CCC(=O)Nc2ccccn2)c1C, the ratio change, negative = inhibition is reported as “inactive”.
For COC(=O)c1cc(NCc2ccccc2F)ccc1N1CCOCC1, the ratio change, negative = inhibition was inconclusive: 16.2%.
With Cc1ccc(NC(=S)N=Nc2c(O)[nH]c3ccccc23)cc1 the ratio change, negative = inhibition was inconclusive: 61% [at 46 µM].
For O=C(c1nn2c(C(F)(F)F)cc(-c3ccc(F)cc3)nc2c1Cl)N1CCOCC1, the ratio change, negative = inhibition was inconclusive: 15.8%.
For COc1ccc(C(=O)CSc2nc3ccccc3n2CC(=O)NC(C)(C)C)cc1, the ratio change, negative = inhibition was “inactive”.
With CCOc1cc(/C=C2\C(=O)N(CCc3ccc(OC)c(OC)c3)C(C)=C2C(=O)OC)ccc1O the ratio change, negative = inhibition was “inactive”.
For CCc1nnc(NS(=O)(=O)c2ccc(NC(=S)NC(=O)c3ccc(OC)cc3)cc2)s1, the ratio change, negative = inhibition was “inactive”.
With CC1S/C(=N/N=C/c2cccs2)NC1=O (configuration not stated) the ratio change, negative = inhibition was “inactive”.
In the case of CCOC(=O)C1=C(CSc2nc3c(cc2C#N)CN(C)CC3)OC(N)=C(C#N)C1c1ccc(Cl)cc1 (configuration not stated), the ratio change, negative = inhibition is reported as “inactive”.
For O=C(O)c1ccc(CNc2ccccc2C(=O)O)cc1, the ratio change, negative = inhibition was “inactive”.
For Cc1ccc2c(c1)N(C(=O)N1CCC(C(=O)NCCC3=CCCCC3)CC1)CC(C)O2 (configuration not stated), the ratio change, negative = inhibition was “inactive”.
With O=C(CCN1CCN(Cc2ccccc2)CC1)Nc1cccc(Cl)c1 the ratio change, negative = inhibition was inconclusive: 9.93%.
With O=S(Cc1ccc(Cl)cc1)CC(O)COCc1ccc(Cl)cc1 (configuration not stated) the ratio change, negative = inhibition was inconclusive: 7.59%.
With CCCN(CC1CC1)c1nc(C)nc(Nc2c(Cl)cc(Cl)cc2Cl)c1Cl the Potency was inconclusive: 35.5 µM [falling, single point].
In the case of COc1ccc(/C=C(/C#N)c2cccnc2)cc1OC, the ratio change, negative = inhibition is reported as inconclusive: -11.7%.
For O=C(Nc1ccc(-c2cn3c(n2)SCC3)cc1)c1ccc2ccccc2n1, the ratio change, negative = inhibition was inconclusive: -14.8% [at 46 µM].
In the case of COc1ccccc1-c1nccc(NCc2cccs2)n1, the ratio change, negative = inhibition is reported as inconclusive: -18.6%.
With O=C(O)CCc1nn2c3ccccc3nc2n(-c2ccccc2)c1=O the ratio change, negative = inhibition was “inactive”.
For CCC(C(=O)Nc1cc(C(=O)Nc2cc(C)ccn2)ccc1Cl)c1ccccc1 (configuration not stated), the ratio change, negative = inhibition was inconclusive: -25.6%.
In the case of CCC(C)(C)NC(=O)C1CCN(c2nc(OC)nc(OC)n2)CC1, the ratio change, negative = inhibition is reported as inconclusive: 5.61% [at 46 µM].
With CCCCN(C)C(=O)CN1C(=O)CCn2nc(-c3cn(C)c4ccccc34)cc21 the ratio change, negative = inhibition was inconclusive: -13% [at 46 µM].
In the case of Cc1ccc(/C=N/N(Cc2ccccc2)c2ccccc2)o1, the ratio change, negative = inhibition is reported as inconclusive: -35.2% [at 46 µM].
For CCSc1nnc([C@@H]2CCCN2C(=O)OC(C)(C)C)o1, the ratio change, negative = inhibition was “inactive”.
For CCN1C(=O)c2cccc3c(S(=O)(=O)Nc4ccccn4)ccc1c23, the Potency was inconclusive: 5.01 µM [inhibitor, partial curve].
With Cc1ccc(-n2c(C)cc(C(=O)CSc3nnc4ccccn34)c2C)cc1 the Potency was inconclusive: 14.1 µM [fluorescent, single point].
For CCOc1cc(-c2c(C#N)c(=O)[nH]c3c2c(C)nn3-c2ccc(F)cc2)ccc1O, the ratio change, negative = inhibition was inconclusive: -29.3%.
For Cc1cccc(NC(=O)c2ccc([N+](=O)[O-])s2)c1C, the Potency was inconclusive: 35.5 µM [falling, single point].
For O=C1CC(Nc2ccccc2)C(=O)N1c1ccc(N2CCOCC2)cc1 (configuration not stated), the ratio change, negative = inhibition was “inactive”.
In the case of O=C(c1ccccc1F)N1CCCC(c2ccccc2)C1 (configuration not stated), the ratio change, negative = inhibition is reported as inconclusive: -13.7%.
With O=C1CC(Nc2ccc(N3CCOCC3)cc2)C(=O)N1CCc1ccccc1 (configuration not stated) the ratio change, negative = inhibition was “inactive”.
In the case of COc1cc(C)nc(N2CCCC(C(=O)Nc3ccccc3Br)C2)n1 (configuration not stated), the ratio change, negative = inhibition is reported as “inactive”.
With CCc1cnc2c(c1SCC(=O)NCc1ccccc1)c(=O)n(C)c(=O)n2C the ratio change, negative = inhibition was inconclusive: 11.1% [at 46 µM].
In the case of O=C(N/N=C/c1ccccc1OC(F)F)C1=COCCO1, the ratio change, negative = inhibition is reported as inconclusive: 9.11% [at 46 µM].
In the case of COC(=O)c1sc2cc(=O)n(-c3cccc(C(F)(F)F)c3)nc2c1O, the ratio change, negative = inhibition is reported as “inactive”.
In the case of COc1ccc(C(=O)Nc2ccc(NC(=O)c3cccs3)cc2)cc1Cl, the ratio change, negative = inhibition is reported as “inactive”.
For Cc1ccc(NC(=O)CC2SC(=NC3CCCCC3)NC2=O)cc1 (configuration not stated), the ratio change, negative = inhibition was inconclusive: -15.2%.
With O=C(COC(=O)c1ccccc1NS(=O)(=O)c1ccc(Cl)cc1)NCc1ccccc1 the Potency was inconclusive: 22.4 µM [fluorescent, single point].
With O=C(Nc1cccc(C2=NCCN2)c1)Nc1cccc(C2=NCCN2)c1 the Potency was inconclusive: 0.0018 µM [inhibitor, full curve, poor fit].
For COCCn1c(N)c(NCc2ccccc2)c(=O)n(CC(=O)Nc2cc(C)ccc2C)c1=O, the ratio change, negative = inhibition was “inactive”.
